This note sets out measurements from PubChem BioAssay AID330 (DTP/NCI, 2004).

The list is a part of this screen's results and no random one: it is rich in T/C values a quarter to a half above the control, in often repeated tests (any T/C) and in doses without a T/C. Further doses and runs are listed elsewhere. T/C gives the treated animals as a percentage of the vehicle group. Some entries give survivors of the animals treated and no T/C: the source holds a T/C of zero for them, seemingly a mark for toxic or unscored doses. Some doses without a T/C left all or most animals alive at the check, yet need not have been tolerated: survival well below the control is almost never listed, so the zero probably covers shortened survival too. Survivors were counted at the toxicity check, usually on the fifth day, unless a day is given; later deaths do not show. Schedules are NCI's codes, read here as Q, the interval in days (D) or hours (H), X, the number of doses. Some entries hold several experiments; their values stand side by side, smallest first. Where survival is the endpoint, this PubChem deposit counts one and a half times the control or more as active, and values a quarter to a half above the control carry no call in these data; other NCI protocols may use other cut-offs. Some T/C values are followed by the survivors on the day toxicity was checked, most often the fifth; without a count, all were alive then.

This experiment deals with P388 leukemia ip, CD2F1 mice, survival T/C. The experiment is described as follows: NCI In Vivo Anticancer Drug Screen. Data for tumor model P388 Leukemia (intraperitoneal) in CD2F1 (CDF1) mice. To be noted: T/C endpoint: median survival time, higher T/C = longer survival.
[1] abbreviates: dose: 100.0 mg/kg/injection, schedule: Q01DX005 (ip), vehicle: saline.
The mark [2] stands for this setting: dose: 200.0 mg/kg/injection, schedule: Q01DX005 (ip), vehicle: saline.
[3] abbreviates: dose: 200.0 mg/kg/injection, schedule: Q01DX009 (ip), vehicle: Klucel (hydroxypropylcellulose) (HPC).
Setting [4] is: dose: 200.0 mg/kg/injection, schedule: Q01DX009 (ip), vehicle: saline.
Where [5] appears, read: dose: 25.0 mg/kg/injection, schedule: Q01DX009 (ip), vehicle: saline with Tween-80.
Setting [6] is: dose: 50.0 mg/kg/injection, schedule: Q01DX009 (ip), vehicle: saline with Tween-80.
Where [7] appears, read: dose: 100.0 mg/kg/injection, schedule: Q01DX009 (ip), vehicle: saline with Tween-80.
[8] abbreviates: dose: 200.0 mg/kg/injection, schedule: Q04DX002 (ip), vehicle: saline with Tween-80.
Where [9] appears, read: dose: 400.0 mg/kg/injection, schedule: Q04DX002 (ip), vehicle: saline with Tween-80.
Setting [10] is: dose: 200.0 mg/kg/injection, schedule: Q04DX003 (ip), vehicle: saline with Tween-80.
[11] abbreviates: dose: 50.0 mg/kg/injection, schedule: Q01DX009 (ip), vehicle: Klucel (hydroxypropylcellulose) (HPC).
[12] abbreviates: dose: 100.0 mg/kg/injection, schedule: Q04DX003 (ip), vehicle: saline with Tween-80.
[13] abbreviates: dose: 1.0 mg/kg/injection, schedule: Q01DX009 (ip), vehicle: saline.
Setting [14] is: dose: 200.0 mg/kg/injection, schedule: Q01DX009 (ip), vehicle: saline with Tween-80.
Setting [15] is: dose: 50.0 mg/kg/injection, schedule: Q01DX009 (ip), vehicle: water.

With `O=C(Cc1ccc(C2=NCCN2)cc1[N+](=O)[O-])c1ccc(C2=NCCN2)cc1`, the survivor count runs as follows: (dose: 3.12 mg/kg/injection, schedule: Q01DX005 (ip), vehicle: saline) 3 of 6 and 6 of 6; (dose: 12.5 mg/kg/injection, schedule: Q01DX005 (ip), vehicle: saline) 2 of 6; (dose: 50.0 mg/kg/injection, schedule: Q01DX005 (ip), vehicle: saline) 0 of 6; under setting [1], 0 of 6; under setting [2], 0 of 6.
For `CCCNCC/C=C/[Si](C)(C)C`, the survivor count (dose: 240.0 mg/kg/injection, schedule: Q01DX005 (ip), vehicle: saline) was 0 of 6.
For `Cc1ccc2c(c1)sc1nnc(S(C)(=O)=O)n12`, the survivor count under setting [3] was 1 of 6.
As for `O=C(C1=C(NCc2ccccc2)CCCC1)c1ccccc1`, the survivor count runs as follows: (dose: 100.0 mg/kg/injection, schedule: Q01DX009 (ip), vehicle: saline) 3 of 6; under setting [4], 2 of 6.
As to `O=C1C(=C(O)c2ccccc2)C(=O)c2ccccc21`, the survivor count (dose: 240.0 mg/kg/injection, schedule: Q01DX005 (ip), vehicle: saline with Tween-80) was 0 of 6.
On to `c1ccc(Cn2c(-c3ccccc3)c[n+]3ccsc23)cc1`, for which the survivor count is, setting by setting: under setting [5], 0 of 6; under setting [6], 0 of 6.
As to `O=[N+]([O-])c1ccc(-c2sc(-c3ccccc3)nc2O)cc1`, the survivor count under setting [7] is 6 of 6.
For the compound `CCC1CCCC[N+]1(C)[B-](F)(F)F` (centres undefined), the survivor count under setting [2] was 0 of 6.
In the case of `COc1ccc(OC(=O)Nc2ccc(Cl)c(C(F)(F)F)c2)c(Cl)c1`, the survivor count (dose: 50.0 mg/kg/injection, schedule: Q01DX009 (ip), vehicle: saline + alcohol) was 6 of 6.
Turning to `CN1C(=O)C(N=O)C(=O)N(C)C1=S`, the survivor count is 0 of 6 (dose: 100.0 mg/kg/injection, schedule: Q04DX002 (ip), vehicle: saline with Tween-80); 0 of 6 under setting [8]; 0 of 6 under setting [9].
Regarding `CCCCCCC(C)NN` (centres undefined), the survivor count was 0 of 6 under setting [10] and 0 of 6 (dose: 400.0 mg/kg/injection, schedule: Q04DX003 (ip), vehicle: saline with Tween-80).
Take `COc1cc(/C=C/C(NC(C)=O)c2cccc(O)c(=O)c2)cc(OC)c1OC` (centres undefined): the survivor count under setting [11] was 6 of 6.
For the compound `Cc1noc(C)c1-c1onc2ccc(Cl)cc12`, under setting [11], the survivor count is listed as 6 of 6.
On to `Cc1cc(N(CCCl)CCCl)c(C)cc1NC(=O)c1ccccc1`, for which, where the note is “dose: 25.0 mg/kg/injection, schedule: Q04DX003 (ip), vehicle: saline with Tween-80”, the T/C is 127 % of control. Under setting [12], the survivor count is given as 6 of 6.
`S=c1[nH]ccn1-c1c(Cl)cccc1Cl`: the survivor count under setting [3] was 6 of 6.
For `COC(C(=O)C(O)C(C)O)C1Cc2cc3cc(OC4CC(OC5CC(O)C(O)C(C)O5)C(O)C(C)O4)c(C)c(O)c3c(O)c2C(=O)C1OC1CC(OC2CC(O)C(OC3CC(C)(O)C(O)C(C)O3)C(C)O2)C(O)C(C)O1` (centres undefined), the T/C (dose: 0.13 mg/kg/injection, schedule: Q01DX009 (ip), vehicle: saline) was 137 % of control; the T/C (dose: 0.25 mg/kg/injection, schedule: Q01DX009 (ip), vehicle: saline) was 147 % of control; the T/C (dose: 1.0 mg/kg/injection, schedule: Q01DX001 (ip), vehicle: saline) was 126 % of control; the T/C under setting [13] was 131 % of control; the T/C (dose: 1.0 mg/kg/injection, schedule: Q04DX003 (ip), vehicle: saline) was 132 % of control [7 of 10 alive]. Also, the survivor count by setting is: under setting [13], 8 of 10; (dose: 2.0 mg/kg/injection, schedule: Q01DX001 (ip), vehicle: saline) 3 of 10; (dose: 2.0 mg/kg/injection, schedule: Q04DX003 (ip), vehicle: saline) 0 of 10; (dose: 4.0 mg/kg/injection, schedule: Q04DX003 (ip), vehicle: saline) 0 of 10.
As for `CC1C(=O)OC2C1CCC1(C)CCC(=O)C(C)C21` (centres undefined), the survivor count is, setting by setting: under setting [8], 2 of 6; under setting [9], 0 of 6.
On to `O=CNCO`, for which the T/C (dose: 2000.0 mg/kg/injection, schedule: Q01DX005 (ip), vehicle: water) was 126 % of control and the T/C (dose: 3000.0 mg/kg/injection, schedule: Q01DX005 (ip), vehicle: water) was 127 % of control. The survivor count (dose: 4000.0 mg/kg/injection, schedule: Q01DX005 (ip), vehicle: water) was 4 of 5.
Regarding `COc1cccc2c1C(=O)c1c(O)c3c(c(O)c1C2=O)C[C@@](O)(C(C)=O)CC3OC1CC(N/C(C)=C/C(=O)c2ccccc2)C(O)C(C)O1` (some centres undefined), the T/C under setting [12] is 132 % of control and the T/C under setting [10] was 133 % of control.
Regarding `COc1ccc(NC(=O)NNC(N)=S)cc1`, the survivor count under setting [14] is given as 2 of 6.
With `C=C1CC2(CC[N+](Cc3ccccc3)(Cc3ccccc3)CC2)OC1=O`, the survivor count by setting is: under setting [1], 0 of 5; under setting [2], 0 of 5.
In the case of `COc1cccc2c1C(=O)c1c(O)c3c(c(O)c1C2=O)C[C@@](O)(C(=O)O)C[C@@H]3OC1CC(N)C(O)C(C)O1` (some centres undefined), the T/C is 139 % of control (dose: 6.25 mg/kg/injection, schedule: Q01DX009 (ip), vehicle: water); 127 and 139 % of control (dose: 12.5 mg/kg/injection, schedule: Q01DX009 (ip), vehicle: water); 132 and 137 % of control (dose: 25.0 mg/kg/injection, schedule: Q01DX009 (ip), vehicle: water); 149 % of control under setting [15]; 146 % of control (dose: 75.0 mg/kg/injection, schedule: Q01DX009 (ip), vehicle: water); 141 % of control (dose: 100.0 mg/kg/injection, schedule: Q01DX009 (ip), vehicle: water). The T/C (dose: 150.0 mg/kg/injection, schedule: Q01DX009 (ip), vehicle: water) is 149 % of control.
For `O=C1c2ccccc2C(Cl)=C(Cl)C1(Cl)Cl`, under setting [6], the survivor count is recorded as 4 of 6.
Take `COc1ccc2c(c1)N(C(=O)CN1CCN(C)CC1)c1ccccc1S2`: the survivor count is, setting by setting: under setting [8], 3 of 6; under setting [9], 0 of 6.
Turning to `CC[PH+](CC)CC.[Cl][Au]`, the survivor count runs as follows: (dose: 10.0 mg/kg/injection, schedule: Q01DX009 (ip), vehicle: Klucel (hydroxypropylcellulose) (HPC)) 3 of 6; (dose: 20.0 mg/kg/injection, schedule: Q01DX009 (ip), vehicle: Klucel (hydroxypropylcellulose) (HPC)) 1 of 6 and 4 of 6.
Regarding `CCCCC[CH2][Ge]([CH2]CCCCC)([CH2]CCCCC)[O]C(C)=O`, the T/C (dose: 400.0 mg/kg/injection, schedule: Q01DX001 (ip), vehicle: Klucel (hydroxypropylcellulose) (HPC)) was 133 % of control.
In the case of `ClCc1cccc2c(CCl)cccc12`, the T/C under setting [6] was 125 % of control. Besides, the survivor count under setting [7] was 3 of 6.
For `N#Cc1cc(Cl)ccc1[N+](=O)[O-]`, the survivor count under setting [14] is 0 of 6.
As to `COC(C)(C)O/N=C(\C[n+]1ccccc1)c1ccccc1`, the survivor count under setting [15] is listed as 3 of 6.
As for `Nc1ccccc1SC1CC(=O)N(c2ccccc2Cl)C1=O` (centres undefined), the survivor count is, setting by setting: under setting [14], 3 of 6; (dose: 400.0 mg/kg/injection, schedule: Q01DX009 (ip), vehicle: saline with Tween-80) 3 of 6.
Turning to `OC(/C=C\CC(O)(C(F)(F)F)C(F)(F)F)(C(F)(F)F)C(F)(F)F`, the survivor count under setting [5] is 1 of 6, the survivor count under setting [6] is recorded as 0 of 6, the survivor count under setting [7] was 0 of 6 and the survivor count under setting [14] is 0 of 6.
For `Cc1cc(OP2(=O)Nc3cccc4cccc(c34)N2)ccc1Cl`, where the note is “dose: 200.0 mg/kg/injection, schedule: Q01DX005 (ip), vehicle: saline with Tween-80”, the survivor count is 6 of 6.
`O=C(O)C1CSC(c2cccnc2)N1` (centres undefined): under setting [4], the survivor count is on record as 6 of 6.
